# Percent effect of library compounds

Chains of the proteins cited; added tags and fusions are not shown. Residues count along the entry.
UniProt P9WPC5, whole entry: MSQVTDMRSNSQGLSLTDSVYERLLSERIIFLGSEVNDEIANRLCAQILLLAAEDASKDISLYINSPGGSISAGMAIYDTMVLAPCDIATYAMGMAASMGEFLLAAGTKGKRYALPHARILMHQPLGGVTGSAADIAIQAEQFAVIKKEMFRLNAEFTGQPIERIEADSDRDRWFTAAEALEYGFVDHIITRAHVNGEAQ
UniProt P9WPC3, whole entry partner: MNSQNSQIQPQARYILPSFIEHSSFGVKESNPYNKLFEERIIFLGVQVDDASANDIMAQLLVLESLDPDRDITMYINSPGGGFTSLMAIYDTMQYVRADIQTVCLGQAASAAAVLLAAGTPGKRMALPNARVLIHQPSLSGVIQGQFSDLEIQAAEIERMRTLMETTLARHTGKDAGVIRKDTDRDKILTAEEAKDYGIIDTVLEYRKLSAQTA
UniProt P9WNZ1, whole entry: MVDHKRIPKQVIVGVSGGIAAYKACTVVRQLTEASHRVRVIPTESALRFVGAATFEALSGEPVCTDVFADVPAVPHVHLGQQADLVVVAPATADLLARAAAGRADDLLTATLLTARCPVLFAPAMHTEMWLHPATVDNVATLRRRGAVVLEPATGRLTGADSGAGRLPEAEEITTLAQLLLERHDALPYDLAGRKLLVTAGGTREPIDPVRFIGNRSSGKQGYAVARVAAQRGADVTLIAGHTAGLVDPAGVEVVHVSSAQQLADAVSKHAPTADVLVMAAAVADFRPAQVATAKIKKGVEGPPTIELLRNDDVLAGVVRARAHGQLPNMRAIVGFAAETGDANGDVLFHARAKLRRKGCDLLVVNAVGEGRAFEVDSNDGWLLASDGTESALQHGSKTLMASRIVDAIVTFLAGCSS
UniProt Q8IDJ8, 1-583: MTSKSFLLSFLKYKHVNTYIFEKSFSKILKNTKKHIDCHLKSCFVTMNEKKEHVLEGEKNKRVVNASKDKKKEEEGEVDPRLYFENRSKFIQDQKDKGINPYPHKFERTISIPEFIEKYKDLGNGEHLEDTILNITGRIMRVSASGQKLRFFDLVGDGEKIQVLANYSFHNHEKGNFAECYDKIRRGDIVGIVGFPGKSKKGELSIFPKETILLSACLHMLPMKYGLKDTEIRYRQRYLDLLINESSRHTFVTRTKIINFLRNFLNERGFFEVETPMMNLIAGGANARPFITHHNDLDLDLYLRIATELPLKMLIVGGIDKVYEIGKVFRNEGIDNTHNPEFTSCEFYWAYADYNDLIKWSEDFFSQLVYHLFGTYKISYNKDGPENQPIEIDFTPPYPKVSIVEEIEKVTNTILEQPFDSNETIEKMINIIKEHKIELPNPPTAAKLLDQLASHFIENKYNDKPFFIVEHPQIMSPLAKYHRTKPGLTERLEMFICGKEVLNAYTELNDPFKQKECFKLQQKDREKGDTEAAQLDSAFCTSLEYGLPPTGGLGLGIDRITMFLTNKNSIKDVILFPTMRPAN
UniProt Q4DA54, 1-478: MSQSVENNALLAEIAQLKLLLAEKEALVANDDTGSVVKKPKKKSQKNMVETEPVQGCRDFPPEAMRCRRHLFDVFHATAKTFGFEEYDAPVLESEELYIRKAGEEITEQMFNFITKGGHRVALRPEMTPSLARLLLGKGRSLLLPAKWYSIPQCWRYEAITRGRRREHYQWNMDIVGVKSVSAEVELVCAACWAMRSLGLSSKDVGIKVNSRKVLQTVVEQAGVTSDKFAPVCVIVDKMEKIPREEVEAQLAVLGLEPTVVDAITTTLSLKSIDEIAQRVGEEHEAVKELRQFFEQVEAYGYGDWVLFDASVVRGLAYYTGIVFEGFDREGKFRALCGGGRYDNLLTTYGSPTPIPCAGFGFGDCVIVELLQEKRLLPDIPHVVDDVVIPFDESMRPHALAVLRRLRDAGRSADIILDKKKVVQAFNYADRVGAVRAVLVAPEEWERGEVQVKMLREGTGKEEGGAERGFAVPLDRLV
UniProt I6X8D2, whole entry: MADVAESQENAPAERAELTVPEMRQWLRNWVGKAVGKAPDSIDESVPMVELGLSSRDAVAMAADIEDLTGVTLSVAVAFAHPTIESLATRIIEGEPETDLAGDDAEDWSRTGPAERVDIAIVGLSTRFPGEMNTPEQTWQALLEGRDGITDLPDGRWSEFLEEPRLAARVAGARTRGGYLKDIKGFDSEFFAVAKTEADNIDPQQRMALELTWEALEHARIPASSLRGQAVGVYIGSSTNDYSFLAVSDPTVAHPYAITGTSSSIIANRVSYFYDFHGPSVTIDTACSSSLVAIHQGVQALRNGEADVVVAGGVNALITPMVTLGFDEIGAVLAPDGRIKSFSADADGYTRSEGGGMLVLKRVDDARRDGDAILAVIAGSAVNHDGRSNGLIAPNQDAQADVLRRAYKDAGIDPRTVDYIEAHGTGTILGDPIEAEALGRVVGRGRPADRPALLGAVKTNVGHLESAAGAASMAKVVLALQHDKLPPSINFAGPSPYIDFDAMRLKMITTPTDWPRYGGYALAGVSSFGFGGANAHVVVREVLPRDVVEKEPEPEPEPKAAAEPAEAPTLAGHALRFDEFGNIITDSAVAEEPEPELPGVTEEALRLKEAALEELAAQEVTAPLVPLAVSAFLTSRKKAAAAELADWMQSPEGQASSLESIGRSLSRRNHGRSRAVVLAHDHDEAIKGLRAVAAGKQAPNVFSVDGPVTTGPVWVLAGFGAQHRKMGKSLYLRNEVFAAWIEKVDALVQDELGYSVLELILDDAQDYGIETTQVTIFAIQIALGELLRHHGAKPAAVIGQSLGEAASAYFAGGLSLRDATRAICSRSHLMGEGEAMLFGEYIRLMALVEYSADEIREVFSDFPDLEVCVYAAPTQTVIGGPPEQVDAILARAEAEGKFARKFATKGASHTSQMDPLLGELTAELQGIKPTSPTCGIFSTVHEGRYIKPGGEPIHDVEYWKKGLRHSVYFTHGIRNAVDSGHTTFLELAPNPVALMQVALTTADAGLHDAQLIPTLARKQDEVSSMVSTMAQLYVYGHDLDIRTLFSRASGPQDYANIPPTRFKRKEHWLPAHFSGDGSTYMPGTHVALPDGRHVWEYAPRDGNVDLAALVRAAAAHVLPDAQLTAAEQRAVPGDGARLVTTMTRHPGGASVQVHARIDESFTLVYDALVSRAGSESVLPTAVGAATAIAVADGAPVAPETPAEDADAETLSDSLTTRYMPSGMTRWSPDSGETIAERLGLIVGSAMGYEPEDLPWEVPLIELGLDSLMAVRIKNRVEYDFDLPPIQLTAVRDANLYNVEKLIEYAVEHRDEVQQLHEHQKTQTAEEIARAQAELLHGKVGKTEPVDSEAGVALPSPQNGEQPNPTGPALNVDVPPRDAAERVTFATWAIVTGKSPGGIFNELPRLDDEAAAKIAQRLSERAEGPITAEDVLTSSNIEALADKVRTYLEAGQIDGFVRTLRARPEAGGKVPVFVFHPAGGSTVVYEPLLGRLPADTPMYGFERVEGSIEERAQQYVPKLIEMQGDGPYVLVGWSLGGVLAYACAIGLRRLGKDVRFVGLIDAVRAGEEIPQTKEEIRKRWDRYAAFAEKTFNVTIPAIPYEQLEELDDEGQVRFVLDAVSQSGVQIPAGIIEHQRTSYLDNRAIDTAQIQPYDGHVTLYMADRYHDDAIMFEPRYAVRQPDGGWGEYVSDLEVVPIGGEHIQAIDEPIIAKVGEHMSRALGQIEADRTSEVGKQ

Data taken from ChEMBL document CHEMBL3988442, “University of Dundee, Small-Polar-MMV Screening Library” (2021).

ClpP1P2: 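ClpP1P2, Mycobacterium tuberculosis (UniProt P9WPC5 and UniProt P9WPC3). Protease assay of ClpP1P2, read by the AMC dye that it sets free. Tested at 50 µM. Direction is inferred from only a few compounds that gave an IC50; most scored high, so higher reads as stronger inhibition. Most other retested compounds had strongly negative values. Size under these conditions: about 69,000 compounds, about 10 of them at 50% or above in at least one test.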
CoaBC: 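Coenzyme A biosynthesis protein CoaBC, Mycobacterium tuberculosis (UniProt P9WNZ1). Enzyme assay of CoaBC with a phosphate dye (Biomol Green) read at 650 nm. Compounds at 30 µM. Higher reads as stronger inhibition, judged from the few compounds that gave an IC50. Most strong results did not repeat in a second test. Size under these conditions: about 67,000 compounds, about 40 of them at 50% or above in at least one test.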
PfKRS1: 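Enzyme assay of the cytosolic lysyl-tRNA synthetase in 384-well plates, read by luminescence. Target: Lysine-tRNA ligase, Plasmodium falciparum 3D7 (UniProt Q8IDJ8). Compounds at 30 µM. Higher reads as stronger inhibition, judged from the few compounds that gave an IC50. Of about 69,000 compounds tested this way, about 49 (0.071%) reached 50% or more in at least one test.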
TcHisRS: 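Enzyme assay of histidyl-tRNA synthetase; the read-out is not stated. Target: Histidine-tRNA ligase, Trypanosoma cruzi CL Brener (UniProt Q4DA54). Tested at 30 µM. Higher reads as stronger inhibition (inferred: compounds with an IC50 in retests scored well above the rest). Of about 69,000 compounds tested this way, about 31 (0.045%) reached 50% or more in at least one test.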
Pks13 thioesterase: 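Polyketide synthase Pks13, Mycobacterium tuberculosis (UniProt I6X8D2). Enzyme assay of the thioesterase domain of polyketide synthase 13; the read-out is not stated. Concentration: 30 µM. Higher reads as stronger inhibition (inferred from which compounds were picked for retests). Size under these conditions: about 67,000 compounds, about 300 of them at 50% or above in at least one test.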

Values are the deposited “Percent Effect”, in %.
The controls that fix the scale are not given in the record; negative values are as filed.
The compounds are a random part of those screened.

SMILES: CC1CCCCN1C(=O)Cn1cc(I)cn1 (stereo not shown)
ClpP1P2: 5.705%
CoaBC: -7.725%
PfKRS1: 6.307%
TcHisRS: -1.163%
Pks13 thioesterase: -27.79%

SMILES: Cc1ccc(C(=O)N2CC[C@H]3[C@@H]2CCC(=O)N3c2ccccc2)cn1
ClpP1P2: -4.804%
CoaBC: 4.574%
PfKRS1: 0.7349%
TcHisRS: 6.122%
Pks13 thioesterase: 4.089%

SMILES: COc1cc(C(=O)NCC2CC2)nc2c(C)cc(F)cc12
ClpP1P2: 1.428%
CoaBC: -1.823%
PfKRS1: -1.947%
TcHisRS: 6.931%
Pks13 thioesterase: 3.776%

SMILES: CC(=O)N1CC[C@@H]2CN(Cc3cccc(Cl)c3)S(=O)(=O)[C@@H]2CC1
ClpP1P2: 0.5379%
CoaBC: 4.235%
PfKRS1: 5.28%
TcHisRS: 4.902%
Pks13 thioesterase: -29.83%

SMILES: CC(=O)N1CCC(C(=O)N2CCOC(CC3CCCCC3)C2)CC1 (stereo not shown)
ClpP1P2: -11.57%
CoaBC: 4.969%
PfKRS1: 3.119%
TcHisRS: -3.59%
Pks13 thioesterase: -19.96%

SMILES: O=C1[C@H]2CN(CC3CCOCC3)C[C@H]2CN1Cc1cccc(F)c1
ClpP1P2: 7.641%
CoaBC: 0.9346%
PfKRS1: 1.328%
TcHisRS: 7.609%
Pks13 thioesterase: 6.441%

SMILES: CN1CCc2c(C#N)c(NCCc3ccccc3)n3cnnc3c2C1
ClpP1P2: 1.32%
CoaBC: 5.57%
PfKRS1: 10.94%
TcHisRS: 2.439%
Pks13 thioesterase: -4.353%

SMILES: CCOC1CCN(C(=O)NCc2ccc(C(=O)N(C)C(C)C)cc2)CC1
ClpP1P2: -9.274%
CoaBC: 4.668%
PfKRS1: 2.254%
TcHisRS: 15.29%
Pks13 thioesterase: -10.23%

SMILES: N#Cc1cn(C2CC2)c(=O)n(Cc2noc(-c3ccsc3)n2)c1=O
ClpP1P2: 8.959%
CoaBC: 8.058%
PfKRS1: 1.984%
TcHisRS: 9.524%
Pks13 thioesterase: -0.8268%

SMILES: O=S(=O)(c1cc(F)ccc1F)N1CCCC1c1ccncc1 (stereo not shown)
ClpP1P2: 21.69%
CoaBC: -1.01%
PfKRS1: 3.567%
TcHisRS: 11.11%
Pks13 thioesterase: -20.64%

SMILES: CC(C1CCN(Cc2c(Cl)cncc2Cl)CC1)N1CCOCC1 (stereo not shown)
ClpP1P2: -3.977%
CoaBC: -34.62%
PfKRS1: 3.535%
TcHisRS: 12.43%
Pks13 thioesterase: -24.35%

SMILES: O=c1[nH]c(-c2ccccc2)nc2c1CCN(S(=O)(=O)N1CCCC1)C2
ClpP1P2: 8.42%
CoaBC: -0.1122%
PfKRS1: 7.304%
TcHisRS: 7.772%
Pks13 thioesterase: -8.434%

SMILES: O=C(NCC(CO)Cc1cccc(OC(F)(F)F)c1)c1cnccn1 (stereo not shown)
ClpP1P2: 4.588%
CoaBC: -1.687%
PfKRS1: -1.968%
TcHisRS: 4.95%
Pks13 thioesterase: -15.01%

SMILES: O=C(NC1CCCCC1)[C@H]1CNC[C@@H](COc2cccnc2)C1
ClpP1P2: 0.02808%
CoaBC: -7.46%
PfKRS1: -3.254%
TcHisRS: 1.087%
Pks13 thioesterase: -24.29%

SMILES: O=C(c1cc(-c2cccnc2)[nH]n1)N1CCCC(Cc2ccccn2)C1 (stereo not shown)
ClpP1P2: -7.751%
CoaBC: 2.102%
PfKRS1: -2.333%
TcHisRS: -0.7576%
Pks13 thioesterase: -15.86%

SMILES: Cn1c(-c2ccccc2Cl)nc2cc(C(=O)NCC3(C)COC3)cnc21
ClpP1P2: 15.87%
CoaBC: 10.3%
PfKRS1: -1.724%
TcHisRS: -5.814%
Pks13 thioesterase: -27.88%

SMILES: CCc1ncc2c(n1)CN(Cc1cccc(OCC(N)=O)c1)CC2
ClpP1P2: -3.32%
CoaBC: 7.908%
PfKRS1: -0.2768%
TcHisRS: 18.13%
Pks13 thioesterase: -4.704%

SMILES: O=C(Nc1ccccc1F)C1CSCN1C(=O)CCc1ccco1 (stereo not shown)
ClpP1P2: 5.531%
CoaBC: 1.456%
PfKRS1: -0.09111%
TcHisRS: 6.077%
Pks13 thioesterase: -30.75%

SMILES: O=C(NCC(F)(F)C(F)F)c1cccnc1
ClpP1P2: -9.952%
CoaBC: 1.08%
PfKRS1: 0.8818%
TcHisRS: 8.163%
Pks13 thioesterase: -6.161%

SMILES: CC(=O)N1CCN(Cc2ccc(F)c(C(F)(F)F)c2)CC(O)C1 (stereo not shown)
ClpP1P2: -29.23%
CoaBC: 1.118%
PfKRS1: 6.363%
TcHisRS: -8.696%
Pks13 thioesterase: -5.228%

SMILES: CN1CCN(Cc2cccnc2)C(=O)C12CCN(C1CCOC1)CC2 (stereo not shown)
ClpP1P2: -6.331%
CoaBC: 2.956%
PfKRS1: 4.193%
TcHisRS: 2.062%
Pks13 thioesterase: -6.636%

SMILES: CC(NC(=O)Nc1ccc(-n2cncn2)cc1)C(=O)NC(C)(C)C (stereo not shown)
ClpP1P2: -3.541%
CoaBC: 3.969%
PfKRS1: 2.257%
TcHisRS: -0.6135%
Pks13 thioesterase: 8.557%

SMILES: CN1CCN(Cc2cnc3n2CCN(C(=O)c2ccncc2)C3)CC1
ClpP1P2: -13.01%
CoaBC: 4.569%
PfKRS1: -1.927%
TcHisRS: 0.9852%
Pks13 thioesterase: 0.4006%

SMILES: CCc1nccn1CCCNC(=O)c1cnn(-c2ccccc2OC)c1
ClpP1P2: 10.87%
CoaBC: -1.094%
PfKRS1: 4.868%
TcHisRS: 0.9901%
Pks13 thioesterase: -4.248%

SMILES: CC(C)c1nnc(CCC(=O)N2CCCC(c3cnccn3)C2)o1 (stereo not shown)
ClpP1P2: 7.03%
CoaBC: 0.6135%
PfKRS1: 0.05722%
TcHisRS: 6.977%

The first 2 entries again:

SMILES	ClpP1P2	CoaBC	PfKRS1	TcHisRS	Pks13 thioesterase
CC1CCCCN1C(=O)Cn1cc(I)cn1 (stereo not shown)	5.705%	-7.725%	6.307%	-1.163%	-27.79%
Cc1ccc(C(=O)N2CC[C@H]3[C@@H]2CCC(=O)N3c2ccccc2)cn1	-4.804%	4.574%	0.7349%	6.122%	4.089%